According to the supplement of paper PMC7858590:
± gives the standard deviation of the averaged measurements. Whole data set: some 3,800 compounds, median “cell shape (eccentricity) Z-score vs DMSO control” near 1.1, cut for the lowest 2% near -4.7. The list shows a part of the results.

test system: human monocyte-derived macrophages (M0); assay: cell shape (eccentricity) Z-score vs DMSO control; higher = more elongated, M2-like morphology; conditions: 20 µM; 24 h; macrophage state: M0 (M-CSF)

Compound | cell shape (Z-score)
O=c1cc(-c2ccccc2)oc2cccc(O)c12 | -0.394
C[C@@H]1CC[C@]2(C(=O)O[C@@H]3O[C@H](CO)[C@@H](O)[C@H](O)[C@H]3O)CC[C@]3(C)C(=CCC4[C@@]5(C)C[C@@H](O)[C@H](O)C(C)(C)C5CC[C@]43C)C2[C@]1(C)O (stereo partly drawn) | 2.93
CC1(C)CCC(c2ccc(Cl)cc2)=C(CN2CCN(c3ccc(C(=O)NS(=O)(=O)c4ccc(N[C@H](CCN5CCOCC5)CSc5ccccc5)c(S(=O)(=O)C(F)(F)F)c4)cc3)CC2)C1 | 5.63
C=CC1=C(C)c2cc3[nH]c(cc4nc(cc5[nH]c(cc1n2)c(C)c5CCC(=O)O)C(CCC(=O)O)=C4C)c(C)c3C=C | 0.722
C=C1C(=O)O[C@@H]2C[C@H](C)C3C[C@H](O)[C@H](O)[C@@]3(C)C[C@H]12 (stereo partly drawn) | -2.78 ± 0.67
CC(=O)C(O)(C(=O)OCc1ccc(O[C@@H]2O[C@H](CO)[C@@H](O)[C@H](O)[C@H]2O)cc1)C(C)C (stereo partly drawn) | 1.38
O=C(O)c1ccc2cc(-c3ccc(O)c(C45CC6CC(CC(C6)C4)C5)c3)ccc2c1 | 4.58
COC(=O)C1=C(C)NC(C)=C(C(=O)OCC(C)C)C1c1ccccc1[N+](=O)[O-] (stereo not drawn) | 1.98
O=C(NCCO[N+](=O)[O-])c1cccnc1 | 0.999
C[C@H]1O[C@@H](O[C@H]2CC[C@@]3(C)C(CC[C@]4(C)C3CC=C3C5CC(C)(C)CC[C@]5(C(=O)O)CC[C@]34C(=O)O)C2(C)C)[C@H](O)[C@@H](O)[C@H]1O (stereo partly drawn) | -1.07
COc1ccc2c(c1)O[C@@H]1COc3cc4c(cc3[C@]1(O)C2=O)OCO4 | -2.32
CC(C)n1cnc2c(NCc3ccccc3O)nc(NCCCO)nc21 | 3.13
C[C@@H]1O[C@@H](O[C@H]2[C@H](O[C@H]3CC[C@@]4(C)C(CC[C@]5(C)C4CC=C4C6CC(C)(C)CC[C@]6(C(=O)O[C@@H]6O[C@H](CO[C@@H]7O[C@H](CO)[C@@H](O[C@@H]8O[C@@H](C)[C@H](O)[C@@H](O)[C@H]8O)[C@H](O)[C@H]7O)[C@@H](O)[C@H](O)[C@H]6O)CC[C@]45C)C3(C)C)OC[C@H](O)[C@@H]2O)[C@H](O)[C@H](O)[C@H]1O (stereo partly drawn) | -0.243 ± 0.75
CCc1ccc(C(=O)C(C)CN2CCCCC2)cc1 (stereo not drawn) | 0.247
CC(=O)OC1CCC(C)(O)C2OC(CC1(C)O)C(C(C)C)C2OC(=O)/C=C/c1ccccc1 (stereo not drawn) | -1.36
C[C@]12CCC3c4ccc(O)cc4CCC3C1C[C@@H](O)[C@@H]2O (stereo partly drawn) | 2.3
NS(=O)(=O)c1cc2c(cc1C(F)(F)F)NC(Cc1ccccc1)NS2(=O)=O (stereo not drawn) | 1.7
COc1ccc(-c2oc3c(CC=C(C)C)c(O[C@@H]4O[C@H](CO)[C@@H](O)[C@H](O)[C@H]4O)cc(O)c3c(=O)c2O[C@@H]2O[C@@H](C)[C@H](O)[C@@H](O)[C@H]2O)cc1 | -2.65
CC(C)C1NC(=O)/C(=C/c2cnc[nH]2)NC1=O (stereo not drawn) | -0.366
CCN(CCO)CCCC(C)Nc1ccnc2cc(Cl)ccc12 (stereo not drawn) | 0.0103
O=C(O)CCc1c(C(=O)O)[nH]c2cc(Cl)cc(Cl)c12 | 1.64
O=C(O)Cn1c(C(=O)Nc2nc(-c3ccccc3Cl)cs2)cc2ccccc21 | 2.41
COC(=O)Nc1nc2ccc(C(=O)c3ccccc3)cc2[nH]1 | 0.369
CS(=O)(=O)CCNCc1nc(-c2ccc3ncnc(Nc4ccc(OCc5cccc(F)c5)c(Cl)c4)c3c2)cs1 | -2.15
COc1ccc(C(=O)Nc2sc3c(c2C(N)=O)CCCC3)cc1OC | -0.0146
Cc1cc(=O)oc2c(O)c(O)ccc12 | 1.41
COC(=O)c1ccc2c(c1)NC(=O)/C2=C(\Nc1ccc(N(C)C(=O)CN2CCN(C)CC2)cc1)c1ccccc1 | 1.75

Compound | cell shape (Z-score)
CC1CCC2C(C)(C)C(=O)CC[C@]2(C)C12Cc1c(O)cc3c(c1O2)CN(C(CCC(=O)O)C(=O)O)C3=O (stereo partly drawn) | 0.0904
N=C(N)NC(=N)N1CCOCC1 | 4.12
CN1C[C@H]2C[C@@H]1CN2c1cc2c(cc1F)c(=O)c(C(=O)O)cn2C1CC1 | -1.92
CC(=O)Nc1ccc(C(=O)Nc2cc(-c3cccs3)ccc2N)cc1 | 1.99
CC(=O)OCC(=O)[C@@]1(O)CCC2C3CCC4=CC(=O)CC[C@]4(C)[C@@]3(F)[C@@H](O)C[C@@]21C (stereo partly drawn) | -0.889
CCN1CCN(CC(=O)Nc2ccc(-c3cccc4c(=O)cc(N5CCOCC5)oc34)c3sc4ccccc4c23)CC1 | -1.47
[O-][N+]c1ccc(O)c2ncccc12 | 5.15
CCCCN1CCCCC1C(=O)Nc1c(C)cccc1C (stereo not drawn) | 0.561
CCOC(=O)NNc1nncc2ccccc12 | 2.54
C=CCn1c(=O)c2cnc(Nc3ccc(N4CCN(C)CC4)cc3)nc2n1-c1cccc(C(C)(C)O)n1 | 7.6
Cc1nnc(C(C)C)n1C1CC2CCC(C1)N2CC[C@H](NC(=O)C1CCC(F)(F)CC1)c1ccccc1 (stereo partly drawn) | 0.0663
CC(=O)O[C@]1(C(C)=O)CCC2C3C=C(Cl)C4=CC(=O)CC[C@]4(C)C3CC[C@@]21C (stereo partly drawn) | 4.12
COc1cc([C@H]2OC[C@H]3[C@@H]2CO[C@@H]3c2ccc(O)c(OC)c2)ccc1O | 0.81
O=C(CN1CCNCC1)NC1CCCCC1 | 0.365
Cn1c(=O)c2c(ncn2C)n(C)c1=O | 3.49
C[C@@H]1CC[C@]2(C(=O)O)CC[C@]3(C)C(=CCC4[C@@]5(C)CC[C@H](O)[C@](C)(C(=O)O)C5CC[C@]43C)C2[C@]1(C)O (stereo partly drawn) | 2.09
c1ccc(CN2CCC3(CCc4ccccc43)CC2)cc1 | 1.94
CN1CCC(OC(c2ccccc2)c2ccccc2)CC1 | -2.1
O=c1cc(-c2ccc(O)cc2)oc2c(C3OC(CO)C(O)C(O)C3O)c(O)c(C3OCC(O)C(O)C3O)c(O)c12 (stereo not drawn) | 0.842
C[C@@H]1Cc2c(O)c(O)cc(O)c2C(=O)O1 | 2.95
O=c1[nH]c(=O)c2ccccc2o1 | 1.33
Nc1ccn([C@@H]2O[C@H](CO)[C@@H](O)[C@@H]2O)c(=O)n1 | -0.126
NC(COCc1ccccc1)C(=O)O (stereo not drawn) | 1.15
C[C@]12C=CC(=O)C=C1CCC1C2C(=O)C[C@@]2(C)C1CC[C@]2(O)C(=O)CO (stereo partly drawn) | 2.52
CCCc1nn(C)c2c(=O)nc(-c3cc(S(=O)(=O)N4CCN(C)CC4)ccc3OCC)[nH]c12 | 0.36
COc1cc(C)c(C(=O)Oc2cc(C)c(C(=O)Oc3cc(C)c(C(=O)NC(C)C(=O)O)c(O)c3)c(O[C@@H]3O[C@H](CO)[C@@H](O)[C@H](O)[C@H]3OC(C)=O)c2)c(OC)c1 (stereo partly drawn) | 2.29 ± 1.2

Quoted at random: three entries already listed.
Compound | cell shape (Z-score)
C[C@]12CCC3c4ccc(O)cc4CCC3C1C[C@@H](O)[C@@H]2O (stereo partly drawn) | 2.3
NS(=O)(=O)c1cc2c(cc1C(F)(F)F)NC(Cc1ccccc1)NS2(=O)=O (stereo not drawn) | 1.7
CN1CCC(OC(c2ccccc2)c2ccccc2)CC1 | -2.1

Taken from above:
In cell shape (Z-score), O=C(CN1CCNCC1)NC1CCCCC1 reads 0.365
In cell shape (Z-score), CC1CCC2C(C)(C)C(=O)CC[C@]2(C)C12Cc1c(O)cc3c(c1O2)CN(C(CCC(=O)O)C(=O)O)C3=O (stereo partly drawn) reads 0.0904
